{"sequences": {"note": "By UniProt entry, the sequences of proteins in these tests, tags left out. Where a name states a change or a piece, a line headed by the entry shows the natural chain unless it says otherwise.", "UniProt P51450": "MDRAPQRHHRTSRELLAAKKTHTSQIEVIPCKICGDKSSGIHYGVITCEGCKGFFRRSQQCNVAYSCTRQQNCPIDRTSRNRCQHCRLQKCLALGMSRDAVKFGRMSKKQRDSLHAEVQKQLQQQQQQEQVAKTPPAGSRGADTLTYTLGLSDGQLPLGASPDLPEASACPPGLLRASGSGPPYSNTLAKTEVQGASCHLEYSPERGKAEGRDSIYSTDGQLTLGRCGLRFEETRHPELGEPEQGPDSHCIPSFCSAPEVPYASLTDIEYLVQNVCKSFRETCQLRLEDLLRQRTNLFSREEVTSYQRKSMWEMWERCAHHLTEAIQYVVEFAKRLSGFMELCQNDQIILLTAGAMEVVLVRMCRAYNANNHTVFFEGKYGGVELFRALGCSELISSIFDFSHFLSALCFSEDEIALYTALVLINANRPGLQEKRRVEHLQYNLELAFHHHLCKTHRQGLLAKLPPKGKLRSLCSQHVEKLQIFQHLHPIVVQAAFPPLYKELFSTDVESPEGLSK"}, "source": "PubChem BioAssay AID2551", "about": "(National Center for Advancing Translational Sciences (NCATS), 2010)", "note": "In all, about 310,000 compounds went through this assay and about 17,000 (5.5%) were called active. The inconclusive results got no clear call from the source; some entries with a clear call stand among them for comparison. Calls come from the whole dose curve; as a rule, active = well fitted inhibition curve with a large enough effect; inconclusive = small, poorly fitted or top-dose-only effect, or effect the other way; inactive = no such curve, though single readings can be large or run the other way. Potencies beside an inconclusive call are fits to weak or partial responses and may not hold up. Potency is the fitted concentration of half-maximal effect.", "data": [{"molecular_target": "Nuclear receptor ROR-gamma (Mus musculus) (UniProt P51450)", "test": "qHTS for inhibitors of ROR gamma transcriptional activity; note: nearly all actives have a fitted effect of over 60% in size", "conditions": "Drosophila S2 Gal4-RORgamma UAS-luciferase reporter, 20 h; series mostly up to 53.6 µM", "method_in_brief": "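Drosophila S2 cells stably expressing Gal4-DBD/mouse RORγ fusion under metallothionein promoter plus UAS-luciferase; compound 1 h, then 700 uM CuSO4 induction for 20 h at ambient temperature; inhibition read as reduced luminescence.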", "values": [{"smiles": "CC(C)CCNC(=O)c1ccc(Cn2c(=S)[nH]c3ccccc3c2=O)cc1", "Potency": "inconclusive: 35.5 µM [inhibitor, single point]"}, {"smiles": "CCN(CC)CCCCn1c(-c2ccccc2)nc2c(NC3CCCCC3)nc(C)nc21", "Potency": "inconclusive: 35.5 µM [inhibitor, single point]"}, {"smiles": "COC(=O)c1nc(N)sc1-c1ccc(Cl)c(Cl)c1", "Potency": "inconclusive: 3.16 µM [inhibitor, partial curve]"}, {"smiles": "COc1cc(NC(=O)Cn2nc(Cc3cccnc3)c3ccccc3c2=O)cc(OC)c1OC", "Potency": "inconclusive: 0.0355 µM [activator, full curve, poor fit]"}, {"smiles": "Cc1ccc(NC(=O)CN(C)Cc2nc3c(Br)cc(Br)cc3c(=O)[nH]2)cc1", "Potency": "inconclusive: 0.708 µM [inhibitor, full curve]"}, {"smiles": "CCO[C@@H]1OC(C(=O)NCc2nc3ccccc3[nH]2)=C[C@H](c2ccccc2)[C@H]1CCCO", "Potency": "inconclusive: 8.91 µM [activator, partial curve]"}, {"smiles": "CC1CC(C)CN(C(=O)CCCn2c(=S)[nH]c3ccccc3c2=O)C1", "note": "(configuration not stated)", "Potency": "active: 7.94 µM"}, {"smiles": "CCOC(=O)/C=C1\\CN(Cc2cc(OC)c(OC)c(OC)c2)S(=O)(=O)c2ccccc21", "Potency": "inconclusive: 5.62 µM [activator, single point]"}, {"smiles": "O=C(CSc1nnnn1Cc1ccccc1)Nc1ccccc1", "Potency": "inconclusive: 35.5 µM [activator, single point]"}, {"smiles": "Cc1ccc(C(=O)OCC(=O)c2ccc(Cl)s2)s1", "Potency": "inconclusive: 5.62 µM [activator, partial curve]"}, {"smiles": "S=c1[nH]nc([C@@H]2C[C@H]2c2ccccc2)n1-c1ccccc1Cl", "Potency": "active: 1.41 µM"}, {"smiles": "CC(C)(C)c1ccc(-c2nc3[nH]c(=O)cc(NC(=O)c4ccco4)n3n2)cc1", "Potency": "inconclusive: 0.562 µM [activator, full curve, poor fit]"}, {"smiles": "CC(C)N(Cc1ccccc1)S(=O)(=O)c1ccc2c(c1)NC(=O)CO2", "Potency": "inactive"}, {"smiles": "COc1ccc(CNc2oc(COc3ccccc3)nc2C#N)cc1", "Potency": "inconclusive: 17.8 µM [activator, single point]"}, {"smiles": "O=C(NNc1ccccc1Br)C(O)(c1cccc(C(F)(F)F)c1)c1cccc(C(F)(F)F)c1", "Potency": "inactive"}, {"smiles": "CSc1ccc(/C=N/n2c(Cc3ccc(Br)cc3)n[nH]c2=S)cc1", "Potency": "inconclusive: 2 µM [inhibitor, full curve]"}, {"smiles": "CCN(CC)CCCn1c(=S)[nH]c2ccc(Cl)cc2c1=O", "Potency": "active: 11.2 µM"}, {"smiles": "COc1ccc(NC(=O)/C(Cl)=C(/Cl)S(=O)Cc2ccccc2Cl)cn1", "note": "(configuration not stated)", "Potency": "active: 1 µM"}, {"smiles": "CN(NS(C)(=O)=O)c1ncc(C(F)(F)F)cc1Cl", "Potency": "active: 11.2 µM"}, {"smiles": "CCc1cc2c(N3CCN(c4nnc(CC)s4)CC3)ncnc2s1", "Potency": "inconclusive: 35.5 µM [inhibitor, single point]"}, {"smiles": "CN1CCN(c2ccccc2NC(=O)c2ccc(N3CCCCC3)c([N+](=O)[O-])c2)CC1", "Potency": "inconclusive: 35.5 µM [inhibitor, single point]"}, {"smiles": "CCOc1ccc(NS(=O)(=O)c2ccc3[nH]cc(C(=O)NC(C)CC)c(=O)c3c2)cc1", "note": "(configuration not stated)", "Potency": "inactive"}, {"smiles": "COc1cccc(-c2nn(C)c3sc(C(=O)NCc4ccc(C)cc4)cc23)c1", "Potency": "inactive"}, {"smiles": "O=C(O)c1ccc2c(c1)C(c1ccccc1)OC2=O", "note": "(configuration not stated)", "Potency": "inactive"}, {"smiles": "CCC(=NCc1ccco1)c1c(C(F)(F)F)[nH]n(-c2nc3ccccc3s2)c1=O", "Potency": "inconclusive: 22.4 µM [inhibitor, single point]"}, {"smiles": "O=C1c2ccccc2C(=O)N1OS(=O)(=O)c1ccc(F)cc1", "Potency": "inconclusive: 20 µM [inhibitor, single point]"}, {"smiles": "CCC(C)(CC(=O)Nc1nccs1)c1ccccc1", "note": "(configuration not stated)", "Potency": "inconclusive: 7.94 µM [inhibitor, partial curve]"}, {"smiles": "CC1CCCCC1NC(=O)C1CCN(S(=O)(=O)c2cccc3nonc23)CC1", "note": "(configuration not stated)", "Potency": "inactive"}, {"smiles": "CC(OC(=O)CCCN1C(=O)c2ccccc2C1=O)C(=O)Nc1ncc(Cl)cc1Cl", "note": "(configuration not stated)", "Potency": "inconclusive: 0.794 µM [inhibitor, single point]"}, {"smiles": "CCc1ccc(OCC(=O)Nc2ccc(-c3nc4ccccc4o3)c(O)c2)cc1", "Potency": "inactive"}, {"smiles": "CCCCCn1nc(C)c2c(C)cc(=O)[nH]c21", "Potency": "inconclusive: 0.355 µM [inhibitor, partial curve, poor fit]"}, {"smiles": "O=[N+]([O-])c1ccc(Nc2ccccc2O)c2nonc12", "Potency": "inconclusive: 10 µM [activator, partial curve]"}, {"smiles": "CSCCC(NC(=O)c1ccco1)C(=O)OCc1cc([N+](=O)[O-])cc2c1OCOC2", "note": "(configuration not stated)", "Potency": "inactive"}, {"smiles": "O=C(O)C1=C(C(=O)Nc2ccc(F)c(Cl)c2)CCCC1", "Potency": "inconclusive: 14.1 µM [activator, single point]"}, {"smiles": "Cc1cc(=O)n2nc(N3CCC(C(=O)NCc4ccccc4F)CC3)sc2n1", "Potency": "inactive"}, {"smiles": "C=C(C)C1CC=C(C)/C(=N/NC(=O)COc2ccccc2C)C1", "note": "(configuration not stated)", "Potency": "inconclusive: 35.5 µM [activator, single point]"}, {"smiles": "CCn1c(-c2ccncc2)n[nH]c1=S", "Potency": "active: 5.01 µM"}, {"smiles": "COc1ccc(C(=O)N/N=C/c2ccc(OC)c(CN3CCCc4ccccc43)c2)cc1", "Potency": "inconclusive: 8.91 µM [inhibitor, partial curve, poor fit]"}, {"smiles": "CCCc1nnc(NC(=S)Nc2ccccc2)s1", "Potency": "active: 0.631 µM"}, {"smiles": "CC(C)CC(=O)NC(=S)Nc1ccc(N2CCN(C(=O)c3cccs3)CC2)cc1", "Potency": "active: 7.08 µM"}, {"smiles": "O=C(/C=C/c1ccc([N+](=O)[O-])cc1)c1cccs1", "Potency": "inactive"}, {"smiles": "Cc1cccc(/C=C\\c2ccccc2)n1", "Potency": "inconclusive: 15.8 µM [inhibitor, partial curve]"}, {"smiles": "O=C1c2ccccc2CCC12N=NCC2c1ccc(Cl)cc1", "note": "(configuration not stated)", "Potency": "inactive"}, {"smiles": "Cc1ccc(NC(=O)COC(=O)c2sccc2C)cc1S(=O)(=O)N1CCOCC1", "Potency": "inconclusive: 12.6 µM [activator, partial curve]"}, {"smiles": "N#C/C(=C/c1ccc(O)cc1)C(=O)NCc1ccc(Cl)cc1", "Potency": "inactive"}, {"smiles": "Cn1ccnc1SCC(=O)c1ccc(Cl)cc1", "Potency": "inconclusive: 35.5 µM [inhibitor, single point]"}, {"smiles": "O=C(Nc1ccc(Cl)c(S(=O)(=O)Nc2ccccc2Cl)c1)c1cccs1", "Potency": "inconclusive: 12.6 µM [activator, partial curve]"}]}]}
